Results: publication doi:10.1101/2023.01.02.522499
Results are given in words; binding and its absence hold for the method and conditions named. In cells and extracts the contact can be indirect. Some results given as binding are weak or reduced against the parent protein; the word gives no strength.

Amino acid sequences for entries named in this document (tags omitted).
UniProt Q16637: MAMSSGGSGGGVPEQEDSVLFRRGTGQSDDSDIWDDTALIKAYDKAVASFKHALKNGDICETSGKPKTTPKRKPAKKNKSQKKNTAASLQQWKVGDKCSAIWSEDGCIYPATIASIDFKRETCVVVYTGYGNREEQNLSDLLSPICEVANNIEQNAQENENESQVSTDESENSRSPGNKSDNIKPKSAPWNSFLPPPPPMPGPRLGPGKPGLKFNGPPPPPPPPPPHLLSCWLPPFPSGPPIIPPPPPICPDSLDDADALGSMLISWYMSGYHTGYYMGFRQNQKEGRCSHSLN
UniProt O14893: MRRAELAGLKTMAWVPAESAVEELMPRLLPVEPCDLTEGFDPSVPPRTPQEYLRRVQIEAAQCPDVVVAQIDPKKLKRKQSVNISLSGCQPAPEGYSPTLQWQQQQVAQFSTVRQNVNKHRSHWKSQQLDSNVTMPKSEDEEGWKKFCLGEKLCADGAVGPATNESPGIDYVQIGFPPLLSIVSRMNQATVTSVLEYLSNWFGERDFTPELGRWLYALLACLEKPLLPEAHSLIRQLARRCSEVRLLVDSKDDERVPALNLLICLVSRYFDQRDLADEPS

Target: untagged SMN protein (survival of motoneuron protein) (human (endogenous in hiPSC)) (UniProt Q16637)
Test: co-IP

In the case of gemin2 (from UniProt O14893 1-280), the binding is reported as “binds”.
